Experimental data reported in the supplement of paper PMC10849652.
The list shows a part of the results.

Protein sequences, listed by entry. Tags and fused reporters are not part of them. Lines headed by an entry give the natural chain unless they say otherwise; changes in a name come on top.
UniProt Q9H4B0: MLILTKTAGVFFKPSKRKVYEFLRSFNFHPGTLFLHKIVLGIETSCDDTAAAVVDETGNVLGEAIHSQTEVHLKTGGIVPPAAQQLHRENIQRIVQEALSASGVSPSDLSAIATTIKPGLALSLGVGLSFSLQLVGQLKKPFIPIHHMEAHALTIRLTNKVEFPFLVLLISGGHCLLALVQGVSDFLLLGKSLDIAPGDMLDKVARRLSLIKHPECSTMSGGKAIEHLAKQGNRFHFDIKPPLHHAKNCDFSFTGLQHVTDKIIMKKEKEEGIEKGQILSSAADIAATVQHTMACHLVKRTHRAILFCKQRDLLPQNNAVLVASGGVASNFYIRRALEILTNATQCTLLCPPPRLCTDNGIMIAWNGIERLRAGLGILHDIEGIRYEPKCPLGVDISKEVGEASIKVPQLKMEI
UniProt O15294: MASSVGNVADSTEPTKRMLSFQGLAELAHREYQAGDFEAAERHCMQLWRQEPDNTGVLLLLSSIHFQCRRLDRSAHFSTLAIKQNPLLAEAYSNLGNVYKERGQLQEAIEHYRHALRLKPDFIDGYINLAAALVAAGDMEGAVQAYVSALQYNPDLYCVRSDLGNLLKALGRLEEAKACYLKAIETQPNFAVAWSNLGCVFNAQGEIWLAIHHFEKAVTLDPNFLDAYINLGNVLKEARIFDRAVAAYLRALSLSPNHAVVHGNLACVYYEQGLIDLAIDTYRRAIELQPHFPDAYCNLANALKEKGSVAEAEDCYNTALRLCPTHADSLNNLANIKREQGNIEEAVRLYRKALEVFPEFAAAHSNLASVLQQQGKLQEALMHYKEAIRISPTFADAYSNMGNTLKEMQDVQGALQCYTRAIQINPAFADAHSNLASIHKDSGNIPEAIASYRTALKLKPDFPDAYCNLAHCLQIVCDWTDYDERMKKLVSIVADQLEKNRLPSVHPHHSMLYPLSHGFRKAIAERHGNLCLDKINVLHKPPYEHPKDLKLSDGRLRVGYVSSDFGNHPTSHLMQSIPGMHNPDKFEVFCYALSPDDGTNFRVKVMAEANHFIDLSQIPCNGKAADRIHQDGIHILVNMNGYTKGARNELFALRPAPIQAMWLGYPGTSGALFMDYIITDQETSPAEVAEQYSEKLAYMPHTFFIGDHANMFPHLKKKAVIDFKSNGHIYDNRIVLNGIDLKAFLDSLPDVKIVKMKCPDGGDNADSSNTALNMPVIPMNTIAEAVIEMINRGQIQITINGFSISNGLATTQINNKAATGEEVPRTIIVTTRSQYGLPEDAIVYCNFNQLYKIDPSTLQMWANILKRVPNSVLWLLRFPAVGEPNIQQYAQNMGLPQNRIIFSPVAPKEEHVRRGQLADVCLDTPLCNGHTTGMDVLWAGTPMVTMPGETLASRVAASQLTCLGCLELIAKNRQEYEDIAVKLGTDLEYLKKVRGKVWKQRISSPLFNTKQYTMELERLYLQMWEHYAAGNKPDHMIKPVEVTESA
UniProt Q8TEW0: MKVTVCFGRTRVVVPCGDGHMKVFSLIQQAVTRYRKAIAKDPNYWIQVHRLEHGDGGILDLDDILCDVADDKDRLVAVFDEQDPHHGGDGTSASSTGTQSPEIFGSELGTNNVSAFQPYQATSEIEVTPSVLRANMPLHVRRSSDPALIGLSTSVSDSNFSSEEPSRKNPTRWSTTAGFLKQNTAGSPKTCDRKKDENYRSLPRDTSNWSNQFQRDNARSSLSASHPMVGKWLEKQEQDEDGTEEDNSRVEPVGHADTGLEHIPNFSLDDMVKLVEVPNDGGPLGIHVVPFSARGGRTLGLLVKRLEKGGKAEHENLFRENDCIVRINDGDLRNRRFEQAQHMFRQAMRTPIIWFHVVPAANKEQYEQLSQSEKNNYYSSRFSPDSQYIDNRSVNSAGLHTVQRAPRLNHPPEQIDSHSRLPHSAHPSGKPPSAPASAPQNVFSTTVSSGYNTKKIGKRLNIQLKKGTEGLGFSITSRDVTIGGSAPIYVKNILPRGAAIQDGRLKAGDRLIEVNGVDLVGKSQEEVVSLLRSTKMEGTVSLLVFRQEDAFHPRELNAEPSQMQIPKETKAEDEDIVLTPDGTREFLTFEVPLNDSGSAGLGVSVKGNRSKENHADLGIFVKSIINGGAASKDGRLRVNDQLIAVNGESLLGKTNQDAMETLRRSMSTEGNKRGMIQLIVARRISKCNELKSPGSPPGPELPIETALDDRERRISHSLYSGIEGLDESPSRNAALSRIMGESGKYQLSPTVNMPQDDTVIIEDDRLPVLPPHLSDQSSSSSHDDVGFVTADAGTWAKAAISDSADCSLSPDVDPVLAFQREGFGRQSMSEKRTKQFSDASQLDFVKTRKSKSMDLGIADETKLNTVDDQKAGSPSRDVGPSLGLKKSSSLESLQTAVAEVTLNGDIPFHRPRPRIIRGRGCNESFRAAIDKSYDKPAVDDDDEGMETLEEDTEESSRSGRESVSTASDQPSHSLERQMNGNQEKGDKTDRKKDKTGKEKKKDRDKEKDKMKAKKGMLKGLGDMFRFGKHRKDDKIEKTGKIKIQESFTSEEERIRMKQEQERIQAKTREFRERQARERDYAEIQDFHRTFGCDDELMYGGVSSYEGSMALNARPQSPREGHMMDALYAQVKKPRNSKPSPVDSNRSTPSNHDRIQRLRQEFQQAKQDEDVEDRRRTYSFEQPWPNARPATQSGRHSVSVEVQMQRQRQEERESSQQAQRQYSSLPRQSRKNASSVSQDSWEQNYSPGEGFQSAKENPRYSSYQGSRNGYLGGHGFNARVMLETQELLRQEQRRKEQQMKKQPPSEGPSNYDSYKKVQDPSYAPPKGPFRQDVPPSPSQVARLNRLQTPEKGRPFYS
UniProt Q92621: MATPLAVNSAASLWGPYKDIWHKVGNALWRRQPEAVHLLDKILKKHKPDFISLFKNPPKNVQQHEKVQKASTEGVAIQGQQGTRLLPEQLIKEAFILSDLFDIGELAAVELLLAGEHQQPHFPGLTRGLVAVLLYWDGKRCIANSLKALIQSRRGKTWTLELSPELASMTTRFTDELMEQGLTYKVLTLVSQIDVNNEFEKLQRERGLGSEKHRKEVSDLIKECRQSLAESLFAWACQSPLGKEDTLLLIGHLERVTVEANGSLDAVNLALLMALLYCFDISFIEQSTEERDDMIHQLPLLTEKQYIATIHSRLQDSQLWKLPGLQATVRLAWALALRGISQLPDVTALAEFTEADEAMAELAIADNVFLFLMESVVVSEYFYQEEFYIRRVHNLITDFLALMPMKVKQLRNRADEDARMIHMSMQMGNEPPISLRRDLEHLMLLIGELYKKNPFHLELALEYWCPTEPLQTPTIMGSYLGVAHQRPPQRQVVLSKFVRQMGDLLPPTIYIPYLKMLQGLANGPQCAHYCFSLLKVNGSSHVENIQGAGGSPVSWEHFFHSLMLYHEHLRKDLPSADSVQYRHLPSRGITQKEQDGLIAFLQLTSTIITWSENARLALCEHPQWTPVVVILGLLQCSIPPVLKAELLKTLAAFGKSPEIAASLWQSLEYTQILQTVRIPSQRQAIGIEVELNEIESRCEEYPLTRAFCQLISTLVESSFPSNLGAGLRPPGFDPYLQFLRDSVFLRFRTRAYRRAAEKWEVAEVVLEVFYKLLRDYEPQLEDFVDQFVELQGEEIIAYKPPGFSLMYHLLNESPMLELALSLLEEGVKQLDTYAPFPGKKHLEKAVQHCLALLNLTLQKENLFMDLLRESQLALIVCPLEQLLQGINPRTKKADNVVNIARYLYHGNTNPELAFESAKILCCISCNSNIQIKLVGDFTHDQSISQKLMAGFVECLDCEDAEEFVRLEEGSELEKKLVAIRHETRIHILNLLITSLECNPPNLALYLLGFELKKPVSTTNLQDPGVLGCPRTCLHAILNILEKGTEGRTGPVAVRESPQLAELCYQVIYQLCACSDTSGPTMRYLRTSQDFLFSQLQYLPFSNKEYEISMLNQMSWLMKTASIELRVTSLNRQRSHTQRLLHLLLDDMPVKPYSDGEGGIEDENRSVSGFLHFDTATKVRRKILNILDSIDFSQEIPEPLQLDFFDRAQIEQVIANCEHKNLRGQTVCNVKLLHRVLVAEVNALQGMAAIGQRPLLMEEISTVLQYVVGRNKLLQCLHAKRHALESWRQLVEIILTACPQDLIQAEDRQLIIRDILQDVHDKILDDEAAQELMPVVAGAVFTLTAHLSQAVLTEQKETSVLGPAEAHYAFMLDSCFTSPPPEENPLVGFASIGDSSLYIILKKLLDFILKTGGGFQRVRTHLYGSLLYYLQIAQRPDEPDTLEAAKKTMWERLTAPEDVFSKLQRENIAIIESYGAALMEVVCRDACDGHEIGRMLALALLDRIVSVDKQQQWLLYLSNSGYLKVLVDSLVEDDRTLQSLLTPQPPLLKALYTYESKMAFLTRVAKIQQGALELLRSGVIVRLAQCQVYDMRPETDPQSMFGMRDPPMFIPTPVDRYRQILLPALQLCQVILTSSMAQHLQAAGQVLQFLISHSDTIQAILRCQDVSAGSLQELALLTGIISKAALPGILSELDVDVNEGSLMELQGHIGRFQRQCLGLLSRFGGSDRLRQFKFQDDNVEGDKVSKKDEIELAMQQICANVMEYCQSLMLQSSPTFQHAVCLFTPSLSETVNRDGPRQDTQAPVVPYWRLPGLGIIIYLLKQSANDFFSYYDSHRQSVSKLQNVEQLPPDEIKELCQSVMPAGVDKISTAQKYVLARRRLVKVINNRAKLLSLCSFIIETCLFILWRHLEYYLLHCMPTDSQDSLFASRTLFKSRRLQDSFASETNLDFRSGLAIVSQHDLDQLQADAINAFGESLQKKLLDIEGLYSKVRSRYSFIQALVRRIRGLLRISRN
UniProt P22234: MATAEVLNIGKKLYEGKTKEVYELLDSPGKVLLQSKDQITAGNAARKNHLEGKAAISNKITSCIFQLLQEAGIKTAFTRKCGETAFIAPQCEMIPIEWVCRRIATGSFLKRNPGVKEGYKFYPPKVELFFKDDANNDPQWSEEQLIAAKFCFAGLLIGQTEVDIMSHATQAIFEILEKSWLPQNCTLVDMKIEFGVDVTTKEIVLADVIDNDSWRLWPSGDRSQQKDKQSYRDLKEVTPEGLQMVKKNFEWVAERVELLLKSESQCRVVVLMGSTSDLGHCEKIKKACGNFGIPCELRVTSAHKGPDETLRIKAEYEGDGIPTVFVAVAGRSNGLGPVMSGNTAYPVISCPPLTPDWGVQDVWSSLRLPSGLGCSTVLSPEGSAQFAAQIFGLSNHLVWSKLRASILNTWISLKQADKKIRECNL
UniProt O15504: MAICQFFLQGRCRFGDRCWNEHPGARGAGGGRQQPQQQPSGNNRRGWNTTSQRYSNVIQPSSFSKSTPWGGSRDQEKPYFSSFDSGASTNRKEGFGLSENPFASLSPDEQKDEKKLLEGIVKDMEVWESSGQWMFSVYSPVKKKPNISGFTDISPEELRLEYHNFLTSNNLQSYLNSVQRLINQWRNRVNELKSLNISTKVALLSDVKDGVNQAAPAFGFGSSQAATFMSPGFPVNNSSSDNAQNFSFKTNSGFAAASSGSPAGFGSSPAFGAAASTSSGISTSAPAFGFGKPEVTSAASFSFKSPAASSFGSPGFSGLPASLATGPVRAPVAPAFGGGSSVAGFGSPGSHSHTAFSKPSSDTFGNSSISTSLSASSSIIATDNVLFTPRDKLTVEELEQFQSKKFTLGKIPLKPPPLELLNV
UniProt Q9NRP0: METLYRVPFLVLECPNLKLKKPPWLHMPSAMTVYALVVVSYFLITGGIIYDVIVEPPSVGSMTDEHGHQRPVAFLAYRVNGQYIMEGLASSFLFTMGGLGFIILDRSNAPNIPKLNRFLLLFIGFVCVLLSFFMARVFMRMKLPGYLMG
UniProt Q5W0B1: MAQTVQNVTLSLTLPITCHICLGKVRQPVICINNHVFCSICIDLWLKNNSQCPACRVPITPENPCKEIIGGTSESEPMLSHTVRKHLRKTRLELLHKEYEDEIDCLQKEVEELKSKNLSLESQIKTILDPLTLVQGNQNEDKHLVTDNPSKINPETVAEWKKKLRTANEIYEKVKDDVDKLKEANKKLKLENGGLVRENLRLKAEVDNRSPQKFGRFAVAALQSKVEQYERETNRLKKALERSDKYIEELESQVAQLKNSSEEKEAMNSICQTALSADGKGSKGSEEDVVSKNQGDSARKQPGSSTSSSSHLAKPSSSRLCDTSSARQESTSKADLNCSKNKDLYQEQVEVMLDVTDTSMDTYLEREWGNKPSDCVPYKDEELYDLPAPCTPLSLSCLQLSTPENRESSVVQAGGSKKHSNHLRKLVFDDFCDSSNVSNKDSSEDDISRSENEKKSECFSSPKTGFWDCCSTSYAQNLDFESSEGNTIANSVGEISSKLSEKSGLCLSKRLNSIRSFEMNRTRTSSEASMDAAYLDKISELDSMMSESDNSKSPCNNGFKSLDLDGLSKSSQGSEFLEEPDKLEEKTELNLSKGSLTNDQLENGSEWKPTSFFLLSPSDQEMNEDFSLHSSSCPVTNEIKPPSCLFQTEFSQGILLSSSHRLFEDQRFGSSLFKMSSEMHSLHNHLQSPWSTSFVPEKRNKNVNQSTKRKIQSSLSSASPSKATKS

Legend:
Test in all cases: log2 fold change, soluble protein after heating vs DMSO (PISA); higher = thermal stabilisation; K562 lysate, 10 uM; active = over 0.2 and 3.5 SD of the protein, either way, in both replicates (recomputed)
[1] = compound: C1=CC=C(C=C1)[C@H](COC2=CC3=C(C=C2)NC(=O)N3)NC(=O)C4=CC=CN(C4=O)CC5=CC(=C(C=C5)F)F
How it was run: (§1)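 K562 pellets were dounce-homogenised in PBS pH 7.4 containing 1 mM MgCl2, and the crude extract, at 1 mg/mL protein, was exposed to 10 μM compound for 30 min. Aliquots were heated for 3 min across 48°C-58°C, pooled, brought to 0.5% NP-40 at 4°C and spun at 21,000xg for 90 min, with the supernatant taken as soluble protein. TMTpro 16plex LC-MS/MS with equalised channel sums quantified that protein. Values are log-two fold changes in thermal stability relative to solvent controls, taken from duplicates.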

[2] = compound: CC1=C(SC2=C1C(=N[C@H](C3=NN=C(N32)C)CC(=O)N)C4=CC=C(C=C4)Cl)C
How it was run: as §1

[3] = compound: CC1=C2C(=CC=C1)N=C(N(C2=O)C3=CC=CC=C3C)CN4C=NC5=C(N=CN=C54)N
How it was run: as §1

[4] = compound: Cc1sc2c(c1C)C(c1ccc(Cl)cc1)=N[C@@H](CC(=O)OC(C)(C)C)c1nnc(C)n1-2
How it was run: as §1

[5] = compound: c1ccc([C@@H]2C[C@H]2NC2CCNCC2)cc1
How it was run: as §1

Measured: log2 fold change

OSGEPL1 (UniProt Q9H4B0)
inactive: [1] 0.082 | [2] 0.108 | [3] 0.044

NUP160 (UniProt Q12769)
inactive: [1] -0.021 | [2] -0.027 | [3] 0.012 | [4] -0.04 | [5] 0.01

NUSAP1 (UniProt Q9BXS6)
inactive: [1] 0.039 | [2] 0.018 | [3] -0.001 | [4] 0.026 | [5] -0.223

PABPC4 isoform 3 (UniProt Q13310)
inactive: [1] -0.033 | [2] 0.017 | [3] -0.002 | [4] 0.008 | [5] 0.041

OGT (UniProt O15294)
inactive: [1] 0.029 | [2] 0.012 | [3] 0.016 | [4] 0.067 | [5] 0.039

OLA1 (UniProt Q9NTK5)
inactive: [1] -0.001 | [2] 0.04 | [3] 0 | [4] 0.011 | [5] 0.022

OXNAD1 (UniProt Q96HP4)
inactive: [1] -0.066 | [2] -0.063 | [3] 0.005 | [4] 0.035 | [5] -0.008

PARD3 (UniProt Q8TEW0)
inactive: [1] 0.078 | [2] 0.063 | [3] -0.028 | [4] 0.09 | [5] -0.024

NUP205 (UniProt Q92621)
inactive: [1] -0.042 | [2] -0.019 | [3] 0.045 | [4] 0.006 | [5] -0.001

ORC4 (UniProt O43929)
inactive: [1] -0.047 | [2] 0.027 | [3] 0.05 | [4] 0.023 | [5] 0.044

NXPE1 (UniProt F5H0Y6)
inactive: [1] 0.043 | [2] -0.11

NUP62 (UniProt P37198)
inactive: [1] -0.103 | [2] -0.047 | [3] -0.015 | [4] -0.003 | [5] -0.017

PAICS (UniProt P22234)
inactive: [1] 0 | [2] -0.01 | [3] 0.004 | [4] 0.001 | [5] -0.044

NUP42 (UniProt O15504)
inactive: [1] 0.035 | [2] -0.014 | [3] 0.101 | [4] 0.044 | [5] 0.116

OTULIN (UniProt Q96BN8)
inactive: [1] -0.013 | [2] 0.027 | [3] 0.06 | [4] 0.108 | [5] 0.004

OSBPL11 (UniProt Q9BXB4)
inactive: [1] -0.027 | [2] -0.064 | [3] 0.028 | [4] -0.026 | [5] -0.004

OSBPL9 (UniProt E9PLH0)
inactive: [1] 0.178 | [2] 0.107

PACSIN3 (UniProt Q9UKS6)
inactive: [1] 0.067 | [2] -0.074 | [3] 0.031 | [4] -0.036 | [5] 0.09

OTUD4 (UniProt Q01804)
inactive: [1] 0.011 | [2] 0.013 | [3] -0.063 | [4] -0.017 | [5] 0.012

OSTC (UniProt Q9NRP0)
inactive: [1] -0.053 | [2] -0.1 | [3] 0.18 | [4] -0.109 | [5] -0.06

PAPOLA (UniProt P51003)
inactive: [1] -0.018 | [2] -0.016 | [3] 0.019 | [4] -0.008 | [5] 0.007

OGDH (UniProt Q02218)
inactive: [1] -0.008 | [2] 0.003 | [3] -0.031 | [4] 0.056 | [5] -0.003

PAK1 (UniProt Q13153)
inactive: [1] 0.029 | [2] -0.009 | [3] -0.011 | [4] 0.015 | [5] -0.126

ORC3 isoform 2 (UniProt Q9UBD5)
inactive: [1] 0.005 | [2] -0.031 | [3] 0.014 | [4] 0.021 | [5] 0.047

ODR4 (UniProt Q5SWX8)
inactive: [1] 0.035 | [2] 0.029 | [3] 0.063 | [4] 0.031 | [5] 0.066

Pulled one by one from the list above (two):
PAK1 (UniProt Q13153)
inactive: [1] 0.029 | [2] -0.009 | [3] -0.011 | [4] 0.015 | [5] -0.126

OGDH (UniProt Q02218)
inactive: [1] -0.008 | [2] 0.003 | [3] -0.031 | [4] 0.056 | [5] -0.003

The results go on:

OBI1 (UniProt Q5W0B1)
inactive: [1] 0.066 | [2] -0.088 | [3] 0.119 | [4] -0.059 | [5] 0.02
